# From the supplement of paper PMC8426693
# The other results are listed elsewhere or left out.
# What was measured:
# Test in all cases: NMR binding call after quantification (hit when 2 of 3 NMR criteria are met) (binary (1 = binding, 0 = not binding)); higher = binding
# Conditions in all cases: RNA concentration 10 µM; fragment concentration 200 µM; 293 K
# [1] = test system: SARS-CoV-2 5_SL8 RNA
# [2] = test system: SARS-CoV-2 attenuator hairpin (att HP) RNA
# [3] = test system: SARS-CoV-2 frameshift pseudoknot (PK) RNA
# [4] = test system: SARS-CoV-2 5_SL7 RNA
Compound,NMR binding call [1],NMR binding call [2],NMR binding call [3],NMR binding call [4]
c1ccc2c(CN3CCCCCC3)c[nH]c2c1,0,0,0,
CNC(=O)c1ccccc1NC(=O)c1ccco1,1,0,,
CCS(=O)(=O)Nc1ccccc1F,,0,0,0
CC(N)c1cn(-c2ccccc2)nn1.Cl (stereo not drawn),,0,0,0
c1ccc(CN2CCC(n3cccc3)CC2)cc1,,0,0,0
CCCc1nnc(NC(=O)c2ccccn2)s1,0,0,0,
Cc1nccc(N2CCC(N)CC2)n1,,,1,0
CNCc1cnn(-c2ccccc2)c1,,0,0,0
O=C(Nc1cccnc1)c1cnn2cccnc12,,0,0,0
O=C(Nc1ccc2[nH]c(=O)[nH]c2c1)c1ccco1,,0,0,0
O=C(NO)c1ccc2ccccc2n1,,0,0,0
CC(=O)Nc1ccncc1C,,,0,0
CC(=O)c1ccc(NC(=O)CN2CCCC2)cc1,,0,1,1
CC(C)(CO)NC(=O)Nc1ccc(Cl)cc1,,,0,0
COc1ccc(Nc2ncnc3[nH]cnc23)cc1,,0,0,0
Cc1ccc(-c2nc(N)sc2C)cc1C,,0,0,0
c1cc(-c2noc(C3CCCCC3)n2)ccn1,0,0,0,
COc1ccc2[nH]cc(CN(C)C)c2c1,,0,0,1
CCc1nc(-c2ccc(Cl)cc2)no1,,0,0,0

# Two entries from above, tab-delimited.
Compound	NMR binding call [1]	NMR binding call [2]	NMR binding call [3]	NMR binding call [4]
c1ccc(CN2CCC(n3cccc3)CC2)cc1		0	0	0
CCCc1nnc(NC(=O)c2ccccn2)s1	0	0	0	
